Drawing on publication doi:10.1101/768341, this text covers binding for two molecules.

Protein sequences, listed by entry. Tags and fused reporters are not part of them. Residues count along the entry.
UniProt P97546, residues 29-393: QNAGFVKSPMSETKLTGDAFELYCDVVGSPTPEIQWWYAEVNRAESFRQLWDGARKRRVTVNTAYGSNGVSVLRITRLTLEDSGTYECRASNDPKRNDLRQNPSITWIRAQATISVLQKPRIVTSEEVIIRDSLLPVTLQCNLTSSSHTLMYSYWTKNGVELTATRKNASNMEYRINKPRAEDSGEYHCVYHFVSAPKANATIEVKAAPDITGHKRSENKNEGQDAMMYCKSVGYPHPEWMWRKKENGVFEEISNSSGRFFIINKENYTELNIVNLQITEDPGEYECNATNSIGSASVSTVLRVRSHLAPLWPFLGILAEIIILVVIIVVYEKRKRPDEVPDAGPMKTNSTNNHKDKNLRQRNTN

Results are given in words; binding and its absence hold for the method and conditions named. Binding seen in cells or lysates may run through a third protein. Some entries that bind do so weakly or less than the wild type. For some assays here: Sequences can lack the tags named with a protein.

Experiment [1] addresses neuroplastin (endogenous, rat brain) (rat (endogenous in brain)) (UniProt P97546). Kind of experiment: co-IP.
Experiment [2] has as its target Np65DDEP(-)-GFP (UniProt P97546). Kind of experiment: co-IP.

B1: TRAF6 (endogenous, rat brain) (protein, UniProt B5DF45 1-530)
chain: MSLLNCENSCASSQSSSDCCAAMANSCSAAMKDDSVSGCVSTGNLSSSFMEEIQGYDVEFDPPLESKYECPICLMALREAVQTPCGHRFCKACITKSIRDAGHKCPVDNEILLENQLFPDNFAKREILSLTVKCPNKGCVQKMELRHLEDHQVHCEFALVICPQCQRFFQKCQINKHIIEDCPRRQVSCVNCAVPMPYEEKEIHDQSCPLANIICEYCGTILIREQMPNHYDLDCPTAPVPCTFSVFGCHEKMQRNHLARHLQENTQLHMRLLAQAVHNVNLSLRPCDASSPSRGCRPEDPNYEETVKQLEGRLVRQDHQIRELTAKMETQSMHVSELKRTIRSLEDKVAEMEAQQCNGIYIWKIGNFGMHLKSQEEERPVVIHSPGFYTGRPGYKLCMRLHLQLPTAQRCANYISLFVHTMQGEYDSHLPWPFQGTIRLTILDQSEAVIRQNHEEVMDAKPELLAFQRPTIPRNPKGFGYVTFMHLEALRQGTFIKDDTLLVRCEVSTRFDMGGLRKEGFQPRSTDAGV
With B1, in experiment [1], the binding result is “binds”.

B2: Flag-TRAF6 (protein, UniProt P70196 1-530)
chain: MSLLNCENSCGSSQSSSDCCAAMAASCSAAVKDDSVSGSASTGNLSSSFMEEIQGYDVEFDPPLESKYECPICLMALREAVQTPCGHRFCKACIIKSIRDAGHKCPVDNEILLENQLFPDNFAKREILSLTVKCPNKGCLQKMELRHLEDHQVHCEFALVNCPQCQRPFQKCQVNTHIIEDCPRRQVSCVNCAVSMAYEEKEIHDQSCPLANIICEYCGTILIREQMPNHYDLDCPTAPIPCTFSVFGCHEKMQRNHLARHLQENTQLHMRLLAQAVHNVNLALRPCDAASPSRGCRPEDPNYEETIKQLESRLVRQDHQIRELTAKMETQSMYVGELKRTIRTLEDKVAEMEAQQCNGIYIWKIGNFGMHLKSQEEERPVVIHSPGFYTGRPGYKLCMRLHLQLPTAQRCANYISLFVHTMQGEYDSHLPWPFQGTIRLTILDQSEALIRQNHEEVMDAKPELLAFQRPTIPRNPKGFGYVTFMHLEALRQGTFIKDDTLLVRCEVSTRFDMGGLRKEGFQPRSTDAGV
As to B2, the binding result in experiment [2] is listed as “binds”.
